Source: the supplement of paper PMC4604168 (melanoma cell lines)
Some of the results follow. Many values rest on one well or one pass, so single values are uncertain.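 The apoptosis fraction was the count of cleaved-PARP antibody-stained nuclei relative to all DNA-stained nuclei, imaged in 1,536-well plates. Screening doses were set so most cells survived, and baseline and induced cleaved-PARP levels vary greatly across cell lines.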

Tested on: COLO800
Assay: cleaved PARP positive nuclei fraction relative to DMSO control; melanoma cells; higher = more apoptosis
Details: library dose: low library concentration; 72 h

SMILES	cleaved PARP positive nuclei fraction
O=C(Nc1ccccc1)c1cc([N+](=O)[O-])ccc1Cl + CCN(CC)CCCCNc1ncc2cc(-c3cc(OC)cc(OC)c3)c(NC(=O)NC(C)(C)C)nc2n1 [PD173074] (first compound 2 µM, partner dose 0.1 µM)	119%
N#Cc1c(O)c2c(-c3ccc(-c4ccccc4O)cc3)csc2[nH]c1=O + O=C(O)C(=O)Nc1sc2c(c1C(=O)O)CCNC2 [TCS401] (first compound 2 µM, partner dose 1.66667 µM)	108%
NCC(=O)Nc1ccc(-n2nc(C(F)(F)F)cc2-c2ccc3c(ccc4ccccc43)c2)cc1 + Cc1cc([N+](=O)[O-])ccc1NS(=O)(=O)c1cc(Cl)ccc1Cl [FH535] (first compound 1 µM, partner dose 1 µM)	86.5%
CCc1ccc(CCOc2ccc(CC3SC(=O)NC3=O)cc2)nc1 (configuration not stated) [pioglitazone] + CCCCCCCCCCCC1=C(O)C(=O)C=C(O)C1=O [Embelin] (first compound 2 µM, partner dose 1.2 µM)	57.3%
Oc1nc(-c2ccc(C(F)(F)F)cc2)nc2c1CSCC2 + CCCCCCCCCCCC1=C(O)C(=O)C=C(O)C1=O [Embelin] (first compound 2 µM, partner dose 1.2 µM)	134%
Cc1cc([N+](=O)[O-])ccc1NS(=O)(=O)c1cc(Cl)ccc1Cl + COc1cc(N2CCC(N3CCN(C)CC3)CC2)ccc1Nc1ncc(Cl)c(Nc2ccccc2S(=O)(=O)C(C)C)n1 [NVP-TAE684] (first compound 1 µM, partner dose 0.08 µM)	57.2%
COc1cc2ncnc(Nc3ccc(Oc4ccccc4)cc3)c2cc1OC + Cn1cc(/C=C2\C(=O)Nc3cccnc32)c2ccccc21 [GW441756] (first compound 2 µM, partner dose 0.4 µM)	102%
CN(C)S(=O)(=O)c1ccc2c(c1)/C(=C/c1cc3c([nH]1)CCCC3)C(=O)N2 + O=C1NC(=O)/C(=C/c2ccc(-c3ccc(F)cc3O)o2)S1 [AS252424] (first compound 0.4 µM, partner dose 1 µM)	143%
COc1cc2ncnc(Nc3ccc(Oc4ccccc4)cc3)c2cc1OC + CCCCCCCCCCCC1=C(O)C(=O)C=C(O)C1=O [Embelin] (first compound 2 µM, partner dose 1.2 µM)	93.3%
O=C(O)c1ccc(-c2c[nH]c3ncc(-c4ccccc4)cc23)cc1C1CCCC1 + COc1cc2ncnc(Nc3ccc(Oc4ccccc4)cc3)c2cc1OC [SrcI1] (first compound 0.16 µM, partner dose 2 µM)	155%
NCC(=O)Nc1ccc(-n2nc(C(F)(F)F)cc2-c2ccc3c(ccc4ccccc43)c2)cc1 + Oc1cc(-c2nc(-c3ccccc3)[nH]c2-c2ccncc2)ccc1Cl [L779450] (first compound 1 µM, partner dose 0.2 µM)	103%
COc1cc2c(Oc3ccc4[nH]c(C)cc4c3F)ncnc2cc1OCCCN1CCCC1 [cediranib] + O=C1NC(=O)/C(=C/c2ccc(-c3ccc(F)cc3O)o2)S1 [AS252424] (first compound 0.4 µM, partner dose 1 µM)	61.2%
CN(C)S(=O)(=O)c1ccc2c(c1)/C(=C/c1cc3c([nH]1)CCCC3)C(=O)N2 + Cn1cc(/C=C2\C(=O)Nc3cccnc32)c2ccccc21 [GW441756] (first compound 0.4 µM, partner dose 0.4 µM)	89.3%
N#Cc1c(O)c2c(-c3ccc(-c4ccccc4O)cc3)csc2[nH]c1=O + Cn1cc(/C=C2\C(=O)Nc3cccnc32)c2ccccc21 [GW441756] (first compound 2 µM, partner dose 0.4 µM)	209%
O=C(Nc1ccccc1)c1cc([N+](=O)[O-])ccc1Cl + CCCCCCCCCCCC1=C(O)C(=O)C=C(O)C1=O [Embelin] (first compound 2 µM, partner dose 1.2 µM)	63.6%
CCc1ccc(CCOc2ccc(CC3SC(=O)NC3=O)cc2)nc1 (configuration not stated) [pioglitazone] + O=C(Nc1ccccc1)c1cc([N+](=O)[O-])ccc1Cl [GW9662] (first compound 2 µM, partner dose 2 µM)	294%
COc1ccc2c(c1)CCC1C2CCC2(C)C(NCCCCCCN3C(=O)C=CC3=O)CCC12 (configuration not stated) + CCCCCCCCCCCC1=C(O)C(=O)C=C(O)C1=O [Embelin] (first compound 0.4 µM, partner dose 1.2 µM)	65.6%

Quoted at random: 2 records from the list.
SMILES	cleaved PARP positive nuclei fraction
O=C(O)c1ccc(-c2c[nH]c3ncc(-c4ccccc4)cc23)cc1C1CCCC1 + COc1cc2ncnc(Nc3ccc(Oc4ccccc4)cc3)c2cc1OC [SrcI1] (first compound 0.16 µM, partner dose 2 µM)	155%
O=C(Nc1ccccc1)c1cc([N+](=O)[O-])ccc1Cl + CCN(CC)CCCCNc1ncc2cc(-c3cc(OC)cc(OC)c3)c(NC(=O)NC(C)(C)C)nc2n1 [PD173074] (first compound 2 µM, partner dose 0.1 µM)	119%
